Experimental data published in paper doi:10.1101/2024.10.19.619191.
These are yes or no findings as the source states them, for the method shown. In cells and extracts the contact can be indirect. Here binding means that the protein was enriched with, or labelled near, the bait; the list need not be complete.

Sequences of proteins named here, by UniProt entry; tags and fusion partners are left off. Residues count along the entry.
UniProt P43220, residues 24-463: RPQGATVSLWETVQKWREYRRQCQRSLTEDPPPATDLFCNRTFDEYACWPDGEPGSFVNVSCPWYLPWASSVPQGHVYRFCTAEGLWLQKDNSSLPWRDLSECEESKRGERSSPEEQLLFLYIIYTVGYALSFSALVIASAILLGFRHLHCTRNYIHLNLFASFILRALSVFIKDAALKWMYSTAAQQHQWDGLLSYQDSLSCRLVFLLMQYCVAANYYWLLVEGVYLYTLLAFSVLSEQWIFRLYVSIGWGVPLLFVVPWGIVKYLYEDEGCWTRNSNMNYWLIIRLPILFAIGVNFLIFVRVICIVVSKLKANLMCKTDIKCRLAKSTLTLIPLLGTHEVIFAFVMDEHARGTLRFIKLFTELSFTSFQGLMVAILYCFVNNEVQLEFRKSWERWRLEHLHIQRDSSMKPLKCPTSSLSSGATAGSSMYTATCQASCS
UniProt P0C6C0: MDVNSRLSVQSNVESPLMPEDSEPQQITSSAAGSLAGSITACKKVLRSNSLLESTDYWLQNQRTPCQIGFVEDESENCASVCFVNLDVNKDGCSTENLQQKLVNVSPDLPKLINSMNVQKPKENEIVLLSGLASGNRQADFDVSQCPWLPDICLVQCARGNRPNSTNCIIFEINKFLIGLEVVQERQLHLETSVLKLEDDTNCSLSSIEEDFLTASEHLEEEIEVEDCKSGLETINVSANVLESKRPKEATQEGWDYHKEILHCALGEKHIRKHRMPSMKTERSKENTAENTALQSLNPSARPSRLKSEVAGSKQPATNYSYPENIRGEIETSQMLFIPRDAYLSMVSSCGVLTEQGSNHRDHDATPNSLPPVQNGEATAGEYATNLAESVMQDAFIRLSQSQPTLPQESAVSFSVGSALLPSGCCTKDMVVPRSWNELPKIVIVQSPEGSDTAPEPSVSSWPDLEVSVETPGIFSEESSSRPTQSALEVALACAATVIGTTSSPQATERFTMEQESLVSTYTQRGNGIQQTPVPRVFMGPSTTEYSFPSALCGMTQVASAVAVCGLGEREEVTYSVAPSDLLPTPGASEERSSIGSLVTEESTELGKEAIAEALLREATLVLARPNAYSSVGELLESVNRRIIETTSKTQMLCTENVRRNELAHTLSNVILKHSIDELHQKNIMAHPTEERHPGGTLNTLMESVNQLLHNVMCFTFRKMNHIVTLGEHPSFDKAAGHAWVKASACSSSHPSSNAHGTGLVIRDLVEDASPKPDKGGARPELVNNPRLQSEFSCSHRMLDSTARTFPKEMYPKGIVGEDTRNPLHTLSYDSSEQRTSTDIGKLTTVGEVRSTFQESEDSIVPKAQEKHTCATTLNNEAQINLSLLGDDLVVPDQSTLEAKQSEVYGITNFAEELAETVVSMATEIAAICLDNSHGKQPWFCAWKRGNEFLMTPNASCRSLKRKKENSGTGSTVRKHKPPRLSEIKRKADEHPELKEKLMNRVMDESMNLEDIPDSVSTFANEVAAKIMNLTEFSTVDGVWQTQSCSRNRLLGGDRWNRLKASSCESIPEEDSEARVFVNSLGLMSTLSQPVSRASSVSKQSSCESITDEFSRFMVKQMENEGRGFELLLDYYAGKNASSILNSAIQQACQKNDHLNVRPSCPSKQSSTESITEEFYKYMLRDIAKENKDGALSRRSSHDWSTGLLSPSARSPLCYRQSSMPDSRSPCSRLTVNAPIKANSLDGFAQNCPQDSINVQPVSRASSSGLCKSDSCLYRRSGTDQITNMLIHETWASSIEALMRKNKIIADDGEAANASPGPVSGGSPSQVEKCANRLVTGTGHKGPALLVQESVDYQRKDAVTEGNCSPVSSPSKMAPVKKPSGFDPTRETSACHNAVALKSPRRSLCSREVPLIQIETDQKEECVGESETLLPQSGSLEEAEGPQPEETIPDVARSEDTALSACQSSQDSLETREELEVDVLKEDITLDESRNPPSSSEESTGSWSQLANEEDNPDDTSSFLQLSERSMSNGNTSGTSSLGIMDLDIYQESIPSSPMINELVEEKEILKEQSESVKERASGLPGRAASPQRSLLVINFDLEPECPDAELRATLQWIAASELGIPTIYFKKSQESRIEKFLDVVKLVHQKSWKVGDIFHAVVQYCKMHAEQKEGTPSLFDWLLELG
UniProt Q9Z269: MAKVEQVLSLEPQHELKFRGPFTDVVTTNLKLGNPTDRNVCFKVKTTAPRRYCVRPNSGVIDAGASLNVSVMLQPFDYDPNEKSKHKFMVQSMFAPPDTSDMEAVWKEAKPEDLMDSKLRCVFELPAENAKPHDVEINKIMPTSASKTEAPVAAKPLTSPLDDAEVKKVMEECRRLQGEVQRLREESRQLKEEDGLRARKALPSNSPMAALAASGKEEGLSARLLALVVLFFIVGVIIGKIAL

Biological target: SNAP/FLAG-hGlp1r^WT (human) (UniProt P43220)
Experiment: affinity purification with mass spectrometry

Row | Substance | binding
1 | A-kinase anchoring protein (AKAP) SPHKAP (from UniProt P0C6C0 1-1683) | binds
2 | ER membrane contact site (MCS) tether VAP-B (from UniProt Q9Z269 1-243) | binds
